This note sets out measurements from the supplement of paper PMC4604168 (melanoma cell lines).

Each structure is given as a SMILES string. The list shows a part of the results. Many values rest on one well or one pass, so single values are uncertain.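 Imaging used 1,536-well plates; nuclei positive for cleaved PARP by antibody were divided by total DNA-stained nuclei to yield the apoptosis fraction. Doses for screening kept most cells viable, and cell lines differ markedly in resting and induced cleaved-PARP levels.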

For the assay, the system named is RPMI7951. In words: cleaved PARP positive nuclei fraction relative to DMSO control; melanoma cells; higher = more apoptosis. The note with it: library dose: low library concentration; 72 h.
With `C[C@@H]1CCN(C(=O)CC#N)C[C@@H]1N(C)c1ncnc2[nH]ccc12` + Cc1cc(SCc2sc(-c3ccc(C(F)(F)F)c(F)c3)nc2C)ccc1OCC(=O)O [GW0742] (first compound 1 µM, partner dose 2 µM), the “cleaved PARP positive nuclei fraction” value was 82.7%.

Turning to `O=C(Nc1cccc(Cl)c1)Nc1ncc(CCNc2ncnc3ccsc23)s1` + Cc1cc(SCc2sc(-c3ccc(C(F)(F)F)c(F)c3)nc2C)ccc1OCC(=O)O [GW0742] (first compound 0.0008 µM, partner dose 2 µM), the “cleaved PARP positive nuclei fraction” value came to 112%.

Regarding `C[C@]12O[C@H](C[C@]1(O)CO)n1c3ccccc3c3c4c(c5c6ccccc6n2c5c31)CNC4=O` [Lestaurtinib] + COc1cc2ncnc(Nc3ccc(Oc4ccccc4)cc3)c2cc1OC [SrcI1] (first compound 0.004 µM, partner dose 2 µM), the “cleaved PARP positive nuclei fraction” value was 79.6%.

Take `C[As](C)SC[C@H](NC(=O)CC[C@H](N)C(=O)O)C(=O)NCC(=O)O` [Darinaparsin] + COc1ccc(COc2ccc(Cc3cnc(N)nc3N)cc2OC)cc1 [GW2580] (first compound 0.4 µM, partner dose 1 µM): the “cleaved PARP positive nuclei fraction” value was 68.2%.

For `C[C@]12O[C@H](C[C@]1(O)CO)n1c3ccccc3c3c4c(c5c6ccccc6n2c5c31)CNC4=O` [Lestaurtinib] + COc1ccc(-c2ccc3c(N4CCOCC4)nc(N4C[C@@H](C)O[C@@H](C)C4)nc3n2)cc1CO [KU0063794] (first compound 0.004 µM, partner dose 0.02 µM), the “cleaved PARP positive nuclei fraction” value is 73.3%.

As for `O=S(=O)(c1ccccc1)N(CC(F)(F)F)c1ccc(C(O)(C(F)(F)F)C(F)(F)F)cc1` + Cc1cc(SCc2sc(-c3ccc(C(F)(F)F)c(F)c3)nc2C)ccc1OCC(=O)O [GW0742] (first compound 1.4 µM, partner dose 2 µM), the “cleaved PARP positive nuclei fraction” value turned out to be 82.1%.

Take `COc1ccc(COc2ccc(Cc3cnc(N)nc3N)cc2OC)cc1` + Cc1cc(SCc2sc(-c3ccc(C(F)(F)F)c(F)c3)nc2C)ccc1OCC(=O)O [GW0742] (first compound 1 µM, partner dose 2 µM): the “cleaved PARP positive nuclei fraction” value was determined as 96.5%.

Consider `C[As](C)SC[C@H](NC(=O)CC[C@H](N)C(=O)O)C(=O)NCC(=O)O` [Darinaparsin] + CCc1ccc(CCOc2ccc(CC3SC(=O)NC3=O)cc2)nc1 [pioglitazone] (first compound 0.4 µM, partner dose 2 µM), for which the “cleaved PARP positive nuclei fraction” value stood at 459%.

For `O=C(Oc1ccc([N+](=O)[O-])cc1)N1CCC(C(O)(c2ccc3c(c2)OCO3)c2ccc3c(c2)OCO3)CC1` + CC(C)CCN1c2nc(Nc3cc(F)c(O)c(F)c3)ncc2N(C)C(=O)C1C [BID1870] (first compound 1 µM, partner dose 0.2 µM), the “cleaved PARP positive nuclei fraction” value was found to be 130%.

For the compound `CO[C@H]1C[C@@H]2CC[C@@H](C)[C@@](O)(O2)C(=O)C(=O)N2CCCC[C@H]2C(=O)O[C@H]([C@H](C)C[C@@H]2CC[C@@H](OCCO)[C@H](OC)C2)CC(=O)[C@H](C)/C=C(\C)[C@@H](O)[C@@H](OC)C(=O)[C@H](C)C[C@H](C)/C=C/C=C/C=C/1C` [everolimus] + Cc1cc(SCc2sc(-c3ccc(C(F)(F)F)c(F)c3)nc2C)ccc1OCC(=O)O [GW0742] (first compound 0.02 µM, partner dose 2 µM), the “cleaved PARP positive nuclei fraction” value came to 112%.

Take `COc1cc(Nc2ncc(F)c(Nc3ccc4c(n3)NC(=O)C(C)(C)O4)n2)cc(OC)c1OC` [Tamatinib] + O=C(Oc1ccc([N+](=O)[O-])cc1)N1CCC(C(O)(c2ccc3c(c2)OCO3)c2ccc3c(c2)OCO3)CC1 [JZL184] (first compound 0.4 µM, partner dose 1 µM): the “cleaved PARP positive nuclei fraction” value turned out to be 43.3%.

As for `COc1cc2ncnc(Nc3ccc(Oc4ccccc4)cc3)c2cc1OC` + O=C(Oc1ccc([N+](=O)[O-])cc1)N1CCC(C(O)(c2ccc3c(c2)OCO3)c2ccc3c(c2)OCO3)CC1 [JZL184] (first compound 2 µM, partner dose 1 µM), the “cleaved PARP positive nuclei fraction” value came out at 40.4%.

As for `C/C(O)=C(\C#N)C(=O)Nc1cc(Br)ccc1Br` + O=C(Oc1ccc([N+](=O)[O-])cc1)N1CCC(C(O)(c2ccc3c(c2)OCO3)c2ccc3c(c2)OCO3)CC1 [JZL184] (first compound 2 µM, partner dose 1 µM), the “cleaved PARP positive nuclei fraction” value came to 89.3%.

As for `C/C(O)=C(\C#N)C(=O)Nc1cc(Br)ccc1Br` + CC(C)CCN1c2nc(Nc3cc(F)c(O)c(F)c3)ncc2N(C)C(=O)C1C [BID1870] (first compound 2 µM, partner dose 0.2 µM), the “cleaved PARP positive nuclei fraction” value came to 155%.

As for `N#Cc1c(O)c2c(-c3ccc(-c4ccccc4O)cc3)csc2[nH]c1=O` + C/C(O)=C(\C#N)C(=O)Nc1cc(Br)ccc1Br [LFM-A13] (first compound 2 µM, partner dose 2 µM), the “cleaved PARP positive nuclei fraction” value was determined as 84.8%.

Regarding `C[C@]12O[C@H](C[C@]1(O)CO)n1c3ccccc3c3c4c(c5c6ccccc6n2c5c31)CNC4=O` [Lestaurtinib] + C[C@@H]1CCN(C(=O)CC#N)C[C@@H]1N(C)c1ncnc2[nH]ccc12 [CP690550] (first compound 0.004 µM, partner dose 1 µM), the “cleaved PARP positive nuclei fraction” value amounted to 110%.

In the case of `Cc1ccc(NC(=O)c2cccc(N(C)C)c2)cc1NC(=O)c1ccc(O)cc1` + C/C(O)=C(\C#N)C(=O)Nc1cc(Br)ccc1Br [LFM-A13] (first compound 2 µM, partner dose 2 µM), the “cleaved PARP positive nuclei fraction” value worked out at 42.8%.
